Values of other authors as cited in US20160281133A1, “STABILIZATION AND ISOLATION OF EXTRACELLULAR NUCLEIC ACIDS” (QIAGEN GMBH, priority 2013, published 2016).

System: PARP cleavage
Conditions: cited from earlier work

## CC(=O)N[C@@H](C)C(=O)N[C@@H](C)C(=O)N[C@H](C(=O)N[C@@H](C)C(=O)N[C@@H](CC(C)C)C(=O)N[C@@H](CC(C)C)C(=O)N1CCC[C@H]1C(=O)N[C@@H](C)C(=O)N[C@H](C(=O)N[C@@H](CC(C)C)C(=O)N[C@@H](CC(C)C)C(=O)N[C@@H](C)C(=O)N[C@@H](CC(C)C)C(=O)N[C@@H](CC(C)C)C(=O)N[C@@H](C)C(=O)N1CCC[C@H]1C(=O)N[C@@H](CC(=O)O)C(=O)N[C@@H](CCC(=O)O)C(=O)N[C@H](C(=O)N[C@H](C=O)CC(=O)O)C(C)C)C(C)C)C(C)C
  IC50: 0.2 nM

The match of structure and compound is tentative.
